Holding throughout (assay): binding assay
Data set [1] addresses Gremlin-1 (fibrotic liver lysate) (mouse) (UniProt O70326). Particulars: South-Western blot; SHMCK: 20 mM Hepes, 120 mM NaCl, 5 mM KCl, 1 mM MgCl2, 1 mM CaCl2, pH 7.4, 37 C, 1 h; Gremlin-1 50 ng/well; dot-blot in PBS at 37 C, South-Western in PBS at 4 C; protein in an extract; label: 5'-biotin; folded or branched DNA. For orientation: Immunoblotting shows a protein as a band on a membrane.

Protein sequences, listed by entry. Tags and fused reporters are not part of them. Residues count along the entry.
UniProt O70326, 25-184: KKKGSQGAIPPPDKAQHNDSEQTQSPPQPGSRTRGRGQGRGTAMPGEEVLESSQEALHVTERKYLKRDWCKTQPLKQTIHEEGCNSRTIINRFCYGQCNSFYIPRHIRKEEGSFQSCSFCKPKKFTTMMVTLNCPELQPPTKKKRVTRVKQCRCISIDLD
UniProt O60565, 25-184: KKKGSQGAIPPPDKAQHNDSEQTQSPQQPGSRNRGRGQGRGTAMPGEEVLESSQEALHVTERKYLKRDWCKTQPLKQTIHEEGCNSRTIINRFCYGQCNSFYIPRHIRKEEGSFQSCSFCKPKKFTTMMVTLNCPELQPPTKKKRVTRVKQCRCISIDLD
UniProt P02769, 25-607: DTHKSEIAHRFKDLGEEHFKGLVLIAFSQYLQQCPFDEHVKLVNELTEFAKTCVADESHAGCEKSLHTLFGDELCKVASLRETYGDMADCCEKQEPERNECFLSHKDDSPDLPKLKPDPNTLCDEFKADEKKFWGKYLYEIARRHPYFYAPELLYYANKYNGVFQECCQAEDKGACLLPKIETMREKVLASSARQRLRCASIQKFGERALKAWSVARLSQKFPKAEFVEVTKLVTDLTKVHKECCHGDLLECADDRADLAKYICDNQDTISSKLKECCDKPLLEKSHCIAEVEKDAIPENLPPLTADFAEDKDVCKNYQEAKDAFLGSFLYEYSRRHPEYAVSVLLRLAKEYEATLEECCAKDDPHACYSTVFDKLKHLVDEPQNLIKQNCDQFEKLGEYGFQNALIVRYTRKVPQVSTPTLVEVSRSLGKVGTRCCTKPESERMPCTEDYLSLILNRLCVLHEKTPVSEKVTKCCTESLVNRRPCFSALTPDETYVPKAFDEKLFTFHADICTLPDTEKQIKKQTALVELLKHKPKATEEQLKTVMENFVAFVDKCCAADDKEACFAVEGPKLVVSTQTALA

The target in data set [2] is Gremlin-1 (rhGremlin-1, R&D Systems) (human) (UniProt O60565). Particulars: SHMCK: 20 mM Hepes, 120 mM NaCl, 5 mM KCl, 1 mM MgCl2, 1 mM CaCl2, pH 7.4, 37 C, 1 h, Gremlin-1 50 ng/well, dot-blot in PBS at 37 C, South-Western in PBS at 4 C, commercial protein, label: 5'-biotin, folded or branched DNA.
For a further data set, the target named is BSA (UniProt P02769). Particulars: dot-blot; SHMCK: 20 mM Hepes, 120 mM NaCl, 5 mM KCl, 1 mM MgCl2, 1 mM CaCl2, pH 7.4, 37 C, 1 h; Gremlin-1 50 ng/well; dot-blot in PBS at 37 C, South-Western in PBS at 4 C; commercial protein; label: 5'-biotin; folded or branched DNA.

For some assays here: No signal at the amounts used counts as a negative. For some assays here: Construct, isoform or probe ends are uncertain for at least one entry. For some assays here: Results from cells or extracts need not show a direct contact.

Consider “GCGTGCTCCAGTGGCTCTTCGGTACCAACCCAAAGTGACT [G-ap49 (without flanks)]”, for which the binding result in data set [1] was “binds”; in data set [2] (South-Western blot), “binds”; in data set [2] (dot-blot) it was “binds”; in data set [2] (sandwich ELASA), “binds”; in the data set with BSA it was “no binding”.

The values are drawn from paper PMC6154100.
